The source of these data is patent US10662210B2, “Compositions and methods comprising osmium for the treatment of cancers” (Massachusetts Institute of Technology, priority 2014, dated 2020).

This data set concerns A2780 cells. The data set can be described thus: Cellular uptake, cytoplasm/nucleus/membrane fractions. It is filed as cell-based, human. The settings on record: 10 μM, 12 h.

SMILES strings stand for the structures.

On to `[N]#[Os]1([Cl])([Cl])([Cl])[N]2C=CC(c3ccccc3)=c3ccc4c(c32)[N]1C=CC=4c1ccccc1` [Complex 4, OsN(4,7-diphenyl-1,10-phenanthroline)Cl3], for which the “cytoplasm level relative to nucleus” value is on record as 12 fold and the intracellular localization result is listed as “predominantly found in the cytoplasm”.

On to `[N]#[Os]1([Cl])([Cl])([Cl])[N]2C=CC=c3ccc4c(c32)[N]1C=CC=4` [Complex 2, OsN(1,10-phenanthroline)Cl3], for which the intracellular localization entry is “localized essentially evenly between the nucleus and cytoplasm”.
